Test results reported in article PMC9939006.
Results are given in words; binding and its absence hold for the method and conditions named. Binding seen in cells or lysates may run through a third protein. A yes stands for co-enrichment or nearness to the bait. Other partners may have been found. For some of these results: A no says only that the protein was not detected with the bait.

Chains of the proteins cited; added tags and fusions are not shown.
UniProt Q4VC05: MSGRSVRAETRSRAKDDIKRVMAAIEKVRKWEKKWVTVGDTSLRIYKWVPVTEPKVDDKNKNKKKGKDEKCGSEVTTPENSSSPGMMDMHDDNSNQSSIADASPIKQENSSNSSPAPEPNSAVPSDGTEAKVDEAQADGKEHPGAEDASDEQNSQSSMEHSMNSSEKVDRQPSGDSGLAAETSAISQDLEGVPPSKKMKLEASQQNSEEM
UniProt Q9BQE9: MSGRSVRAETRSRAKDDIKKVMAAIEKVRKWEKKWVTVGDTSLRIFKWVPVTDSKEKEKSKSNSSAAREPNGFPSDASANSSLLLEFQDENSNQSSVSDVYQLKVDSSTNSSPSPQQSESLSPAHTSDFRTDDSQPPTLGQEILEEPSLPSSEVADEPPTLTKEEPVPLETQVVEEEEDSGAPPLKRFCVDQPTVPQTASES
UniProt Q92782: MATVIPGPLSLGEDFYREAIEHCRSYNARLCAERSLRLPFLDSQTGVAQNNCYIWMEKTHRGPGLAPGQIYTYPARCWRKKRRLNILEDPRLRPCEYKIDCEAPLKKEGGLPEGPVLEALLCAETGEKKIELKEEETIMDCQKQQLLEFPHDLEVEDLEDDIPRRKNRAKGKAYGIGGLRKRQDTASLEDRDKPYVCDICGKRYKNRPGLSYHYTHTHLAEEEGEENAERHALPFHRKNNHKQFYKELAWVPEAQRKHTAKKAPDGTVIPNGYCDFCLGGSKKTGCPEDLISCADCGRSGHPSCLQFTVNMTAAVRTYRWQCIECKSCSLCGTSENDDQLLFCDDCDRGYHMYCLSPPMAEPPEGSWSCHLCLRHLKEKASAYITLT

Key:
[1] = target: iBRG1 (inducible WT BRG1, Brahma-related gene 1, with C-terminal V5 tag) (human) (UniProt P51532); assay: affinity purification with mass spectrometry; anti-V5 immunoprecipitation of iBRG1 or i∆HSA from SW-13 derivative cells after 24 h doxycycline; cells crosslinked with 1% formaldehyde, high-salt extraction (420 mM NaCl), nuclease, diluted 1:5 in IP buffer (100 mM NaCl, 0.1% NP-40), Protein G Dynabeads, on-bead trypsin digest, LC-MS; three biological replicates
[2] = target: i∆HSA (inducible BRG1 with the HSA domain deleted, with C-terminal V5 tag) (human) (UniProt P51532); assay: as above

binding [1]	binding [2]	Substance
binds	no binding	B-cell CLL/lymphoma 7 protein family member A (BCL7A) (from UniProt Q4VC05 1-210)
binds	no binding	B-cell CLL/lymphoma 7 protein family member B (BCL7B) (from UniProt Q9BQE9 1-202)
binds	no binding	B-cell CLL/lymphoma 7 protein family member C (BCL7C) (from UniProt Q8WUZ0 1-217)
	no binding	BAF45b (from UniProt Q92782 1-387)
